Source: US5464821A, “Small peptidic compounds useful for the treatment of glaucoma” (Carlbiotech, Ltd., priority 1991, dated 1995)
At least one peptide structure holds a part that was inferred or is arguable (an end, a ring closure or a residue). Residues, ends and D or L forms follow the SMILES beside them. *: point of attachment. Acm = CC(=O)NC*

Assays:
[1] = test system: stress induced intraocular pressure in the rabbit's eye; test: stress induced antagonizing model, intraocular pressure in the rabbit's eye; format: in vivo
Experimental: The main feature of this clinical model is a stress induced elevation of the IOP in the rabbit eye above the initial and normal value. The stress is exerted, i.e. applied, in the form of measuring the pressure (at 12 hour intervals) with the help of a SHIOTZ-Tonometer, which is loaded with 7.5 grams. The pressure first begins to rise after 5 measurements, i.e. after 21/2 days, and reaches a maximum after 10 measurements, i.e. after 5 days.
Known antiglaucoma drugs lower the intraocular pressure when they are applied after the intraocular pressure (IOP) has clearly been established,in spite of the fact that the trauma, i.e. the measuring of the pressure, continued during the treatment.
Antagonizing of the Intraocular Pressure in the stressed Rabbit's Eyes Model
The compound was a freeze-dried powder, and was applied to the rabbit eye as a powder, or as drops, dissolved in 0.9% NaCl aqueous solution. Negative control was 0.9% NaCl solution in water.
Peptides were tested for the intraocular pressure lowering or antagonizing effects in the water load model described above or the stress induced antagonizing model respectively, in groups of four to ten rabbits, as described below. The tests were performed on homogeneous groups of randomly sexed rabbits, weight 2.5-3.0 kg, but of different breeds in various laboratories several places in the world. Thus, in some cases intergroup variations were found in the absolute starting pressure of the rabbit's eyes.
In the case of the water load model structure, each rabbit served as its own reference control for the duration of the experiment, and in the case of the stress induced antagonistic model, each group of rabbits served as reference control, at the beginning and end of 10 stress units. Usually, the peptides were dissolved in plain isotonic saline, but in one case in the waterload model, a TRIS-buffer at physiological pH was included.
The peptides were applied topically as a 1% solution in 0.9% aqueous NaCl in aliquots of 60 μl 3 times daily over a period of 5 days.

[2] = test system: cultured bovine trabecular meshwork cells; test: uptake of glycosamines in cultured trabecular meshwork cells; format: cell-based; conditions: in vitro
[3] = test system: intraocular pressure; conditions: from PCT/DK90/00322; cited from earlier work

Compound	antagonizing effect / efficacy in the stress induced rabbit model (in words) [1]	also measured
CC(=O)NCSC[C@H](NC(=O)[C@@H](NC(=O)CNC(C)=O)C(C)C)C(N)=O [AcGlyValCys(Acm)NH2, reference compound] (Ac-Gly-Val-Cys(Acm)-NH2)	partially restored activity	–
CC(=O)NCSC[C@H](NC(=O)[C@@H](NC(=O)CNC(=O)CNC(=O)[C@@H](N)CC(N)=O)C(C)C)C(N)=O [HAsnGlyGlyValCys(Acm)NH2, H-Asn-Gly-Gly-Val-Cys(Acm)-NH2] (H-NGGVC(Acm)-NH2)	–	uptake of glycosamines [2]: marked and significant decrease
CC(=O)NCSC[C@H](NC(=O)[C@@H](NC(=O)CNC(=O)[C@H](CC(C)C)NC(=O)[C@@H](N)CC(N)=O)C(C)C)C(N)=O [HAsnLeuGlyValCys(Acm)NH2, H-Asn-Leu-Gly-Val-Cys(Acm)-NH2] (H-NLGVC(Acm)-NH2)	–	pressure lowering effect [3]: potent pressure lowering agent
CC(=O)NCSC[C@H](NC(=O)[C@@H](NC(=O)[C@@H](N)CC(N)=O)C(C)C)C(N)=O [HAsnValCys(Acm)NH2, reference compound] (H-Asn-Val-Cys(Acm)-NH2)	good efficacy	–
CC(=O)NCSC[C@H](NC(=O)[C@@H](NC(=O)CN)C(C)C)C(N)=O [HGlyValCys(Acm)NH2, reference compound] (H-Gly-Val-Cys(Acm)-NH2)	significantly lower than expected	–
